Assay results published in patent US20130078245A1.
No constants are given. Whether binding was seen depends on the method and setting. Some results given as binding are weak or reduced against the parent protein; the word gives no strength.

Sequences of proteins named here, by UniProt entry; tags and fusion partners are left off. Residues count along the entry.
UniProt P01027, residues 955-1303: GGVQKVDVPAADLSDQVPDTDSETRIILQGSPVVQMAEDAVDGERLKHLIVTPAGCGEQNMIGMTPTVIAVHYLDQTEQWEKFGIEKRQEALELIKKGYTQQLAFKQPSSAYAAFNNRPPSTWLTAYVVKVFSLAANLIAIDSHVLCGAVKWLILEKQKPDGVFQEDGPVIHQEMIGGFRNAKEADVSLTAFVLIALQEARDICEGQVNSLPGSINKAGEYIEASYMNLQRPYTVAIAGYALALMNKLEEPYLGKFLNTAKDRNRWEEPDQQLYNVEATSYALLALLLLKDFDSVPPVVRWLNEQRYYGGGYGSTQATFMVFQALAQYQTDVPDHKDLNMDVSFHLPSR
UniProt P01024, residues 996-1303: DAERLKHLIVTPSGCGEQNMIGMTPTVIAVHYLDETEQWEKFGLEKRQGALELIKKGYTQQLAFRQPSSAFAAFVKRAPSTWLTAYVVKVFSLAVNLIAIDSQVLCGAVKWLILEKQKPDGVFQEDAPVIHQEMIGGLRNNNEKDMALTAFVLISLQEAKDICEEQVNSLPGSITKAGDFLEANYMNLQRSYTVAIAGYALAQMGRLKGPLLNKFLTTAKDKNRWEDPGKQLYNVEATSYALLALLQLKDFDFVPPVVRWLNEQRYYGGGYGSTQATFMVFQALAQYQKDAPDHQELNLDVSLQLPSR
UniProt P20023, residues 21-153: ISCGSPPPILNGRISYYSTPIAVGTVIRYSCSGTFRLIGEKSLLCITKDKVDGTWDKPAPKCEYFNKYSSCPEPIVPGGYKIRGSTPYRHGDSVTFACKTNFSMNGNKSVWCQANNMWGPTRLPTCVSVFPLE

Legend:
[1] = target: mouse C3 fragments iC3b and C3dg/C3d bound to a surface (C3-opsonized zymosan particles; glomerular deposits in factor H deficient mice) (mouse) (UniProt P01027); assay: 0.5 mg CR2-Fc injected into an fH-/- mouse by the tail vein, kidneys after 24 hours, FITC anti-mouse IgG
[2] = target: recombinant human C3d (human) (UniProt P01024); assay: ELISA on plate-bound C3d, detected with HRP anti-MBP; signal given as % binding [left panel]

| binding [1] | binding [2] | Substance |
| --- | --- | --- |
| binds |  | chimeric protein comprised of the iC3b/C3d binding region of human CR2 linked to the Fc region of mouse IgG1 (CR2-Fc) (from UniProt P20023 21-153) (Fc fusion) |
|  | binds | recombinant maltose binding protein (MBP)-CR2 SCRs 1-2 (from UniProt P20023 21-153) (receptor) |
